Data: publication PMC6429432
These are yes or no findings as the source states them, for the method shown. Binding seen in cells or lysates may run through a third protein. Binding calls can cover weak binding; strength is not graded here. Tags and fused reporters may be left off the sequences shown.

Target: TaGAPCp1 fused to the N-terminal fragment of yellow fluorescent protein (pSPYNE-TaGAPCp1) (wheat (Triticum aestivum, Chinese Spring))
Assay: split reporter; BiFC: pSPYNE-TaGAPCp1 and pSPYCE-Cyt b6f co-infiltrated in tobacco by Agrobacterium, leaf protoplasts, YFP fluorescence (500-570 nm) by confocal laser scanning microscopy

B1: Cytochrome b6-f complex iron-sulfur subunit (Cyt b6f) fused to the C-terminal fragment of yellow fluorescent protein (pSPYCE-Cyt b6f) (protein, UniProt Q7X9A6 50-222)
chain: ADRVPDMSKRELMNLLLLGAISLPTFGMLVPYGSFLVPAGSGSNAGGVAAKDKLGNDILVEDWLKTHGPNDRTLAQGLKGDPTYLVVESDKTLATYGINAVCTHLGCVVPWNAAENKFLCPCHGSQYNNQGKVVRGPAPLSLALVHADVDDGKVVFVPWVETDFRTGDNPWWK
binding: binds
